The results in this text go back to article doi:10.1101/359117.

Results are given in words; binding and its absence hold for the method and conditions named. Binding can be weak; no strength is given.

This test has as its target SseK3 (Salmonella Typhimurium SL1344), expressed from pGBKT7-SseK3 (Salmonella Typhimurium SL1344). Kind of test: two-hybrid.

As for “death domain of human TNFR1, expressed from pGADT7-hTNFR1 DD (from UniProt P19438 356-441) (domain or fragment)”, the binding result is on record as “binds”.
Regarding “death domain of human TRAILR2, expressed from pGADT7-hTRAILR2 DD (from UniProt O14763 339-422) (domain or fragment)”, the binding entry is “no binding”.
